At least one compound was matched to its structure with a doubt left.
How the values were obtained:
[1] = system: Ramos cells; assay: Cell death (MTS) assay in Ramos cells; type: cell-based, human; conditions: Ramos cells cultured with HDL NPs; inhibitor added at 1 μM
Procedure: (§1) MTS assays (CellTiter; Promega) were conducted as described previously. For the Ramos, SUDHL4, Raji, Daudi, Namalwa, SUDHL6 and Jurkat cells were plated at a density of 2×10^5 cells/mL, and cultured for 72 hours prior to assay. SUDHL1, SR-786, and U937 cells were plated at a density of 5×10^4 cells/mL and cultured for 5 days prior to MTS assay. The SCARB1 blocking and isotype control antibodies were added at a dilution of 1:1000 to 1:250. Ferrostatin-1 and deferoxamine (DFO) were obtained from Sigma Aldrich, and added at a final concentration of 1 μM. MTS values were standardized to PBS control.

[2] = system: SUDHL4 cells; assay: Cell death (MTS) assay in SUDHL4 cells; type: cell-based, human; conditions: SUDHL4 cells cultured with HDL NPs; inhibitor added at 1 μM
Procedure: as §1

[3] = system: 786-O (renal cell carcinoma-clear cell) cells; assay: MTS cell death / rescue assay in 786-O cells; type: cell-based; conditions: 786-O cells with HDL NPs
[4] = system: 769-P, a clear cell renal carcinoma cell line; assay: MTS cell death / rescue assay in 769-P cells; type: cell-based; conditions: 769-P cells with HDL NPs
[5] = system: OVCAR5 cell line; assay: MTS cell death / rescue assay in OVCAR5 cells; type: cell-based; conditions: OVCAR5 cells with HDL NPs
[6] = system: OVCAR5 CP Resistant Cell Line; assay: MTS cell death / rescue assay in OVCAR5 CP Resistant cells; type: cell-based; conditions: OVCAR5 CP Resistant cells with HDL NPs

CC(=O)N(O)CCCCCNC(=O)CCC(=O)N(O)CCCCCNC(=O)CCC(=O)N(O)CCCCCN [DFO, deferoxamine]
effect on HDL NP induced cell death [1]: significantly inhibited | effect on HDL NP induced cell death [2]: significantly inhibited | effect on cell death induced by HDL NPs (MTS Rescue Assay) [3]: rescued | effect on cell death induced by HDL NPs (MTS) [4]: rescued | effect on cell death induced by HDL NPs (MTS) [5]: rescued | effect on cell death induced by HDL NPs (MTS) [6]: rescued
